No constants are given. Whether binding was seen depends on the method and setting. Binding seen in cells or lysates may run through a third protein. Some entries that bind do so weakly or less than the wild type.
Experiments:
[1] = biological target: aryl hydrocarbon receptor nuclear translocator (ARNT), endogenous in HeLa cells (human (endogenous in HeLa)) (UniProt P27540); experiment: co-IP; endogenous proteins; HeLa cytoplasmic and nuclear extracts, cells with or without TCDF (0.1 uM, 30 min) or ICZ; antibody to AHR, SPHK2 or ARNT on Protein G magnetic beads, 600-800 ug protein, 90 min at 4 C, washed with TBS; western blot
[2] = biological target: T1, sphingosine kinase 2 (SPHK2), endogenous in HeLa cells (human (endogenous in HeLa)) (UniProt Q9NRA0); experiment: as above
T1 sequence: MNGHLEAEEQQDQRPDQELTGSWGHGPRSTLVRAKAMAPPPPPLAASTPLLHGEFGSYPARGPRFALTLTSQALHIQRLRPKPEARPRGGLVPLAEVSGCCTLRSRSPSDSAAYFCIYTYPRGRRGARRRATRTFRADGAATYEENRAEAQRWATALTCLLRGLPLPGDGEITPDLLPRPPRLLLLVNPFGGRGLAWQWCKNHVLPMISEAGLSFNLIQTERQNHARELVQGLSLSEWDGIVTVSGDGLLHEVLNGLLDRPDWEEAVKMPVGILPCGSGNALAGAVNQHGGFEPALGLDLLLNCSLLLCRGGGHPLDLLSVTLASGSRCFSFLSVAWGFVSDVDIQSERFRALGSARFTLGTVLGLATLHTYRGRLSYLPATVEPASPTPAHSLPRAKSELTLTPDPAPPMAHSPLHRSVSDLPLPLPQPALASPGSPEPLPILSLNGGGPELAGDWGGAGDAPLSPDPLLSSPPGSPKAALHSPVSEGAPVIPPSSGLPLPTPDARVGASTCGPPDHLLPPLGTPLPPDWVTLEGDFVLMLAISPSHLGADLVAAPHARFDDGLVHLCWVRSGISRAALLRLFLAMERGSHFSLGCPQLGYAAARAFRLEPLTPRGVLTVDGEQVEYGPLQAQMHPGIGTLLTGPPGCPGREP

By UniProt entry, the sequences of proteins in these tests, tags left out. Residues count along the entry.
UniProt P27540: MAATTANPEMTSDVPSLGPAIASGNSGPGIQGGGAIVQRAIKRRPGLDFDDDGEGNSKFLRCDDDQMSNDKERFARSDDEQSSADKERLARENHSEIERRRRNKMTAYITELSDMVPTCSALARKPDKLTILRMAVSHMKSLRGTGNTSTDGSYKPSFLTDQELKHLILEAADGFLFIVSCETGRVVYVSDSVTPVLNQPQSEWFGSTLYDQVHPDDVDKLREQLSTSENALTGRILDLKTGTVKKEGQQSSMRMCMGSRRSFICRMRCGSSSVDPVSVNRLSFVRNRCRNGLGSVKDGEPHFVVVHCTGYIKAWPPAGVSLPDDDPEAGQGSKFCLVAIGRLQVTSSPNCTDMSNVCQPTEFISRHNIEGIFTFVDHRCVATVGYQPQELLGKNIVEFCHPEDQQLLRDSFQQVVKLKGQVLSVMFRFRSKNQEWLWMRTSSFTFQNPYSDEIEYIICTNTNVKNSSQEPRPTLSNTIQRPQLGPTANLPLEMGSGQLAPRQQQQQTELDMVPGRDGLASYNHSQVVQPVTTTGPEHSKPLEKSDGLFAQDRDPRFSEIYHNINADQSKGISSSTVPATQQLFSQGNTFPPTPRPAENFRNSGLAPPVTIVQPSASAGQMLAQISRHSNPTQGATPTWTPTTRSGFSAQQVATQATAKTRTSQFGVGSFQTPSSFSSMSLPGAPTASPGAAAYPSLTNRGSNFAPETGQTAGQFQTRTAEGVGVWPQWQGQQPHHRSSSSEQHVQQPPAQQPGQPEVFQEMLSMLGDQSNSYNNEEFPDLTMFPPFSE
UniProt P35869, residues 11-848: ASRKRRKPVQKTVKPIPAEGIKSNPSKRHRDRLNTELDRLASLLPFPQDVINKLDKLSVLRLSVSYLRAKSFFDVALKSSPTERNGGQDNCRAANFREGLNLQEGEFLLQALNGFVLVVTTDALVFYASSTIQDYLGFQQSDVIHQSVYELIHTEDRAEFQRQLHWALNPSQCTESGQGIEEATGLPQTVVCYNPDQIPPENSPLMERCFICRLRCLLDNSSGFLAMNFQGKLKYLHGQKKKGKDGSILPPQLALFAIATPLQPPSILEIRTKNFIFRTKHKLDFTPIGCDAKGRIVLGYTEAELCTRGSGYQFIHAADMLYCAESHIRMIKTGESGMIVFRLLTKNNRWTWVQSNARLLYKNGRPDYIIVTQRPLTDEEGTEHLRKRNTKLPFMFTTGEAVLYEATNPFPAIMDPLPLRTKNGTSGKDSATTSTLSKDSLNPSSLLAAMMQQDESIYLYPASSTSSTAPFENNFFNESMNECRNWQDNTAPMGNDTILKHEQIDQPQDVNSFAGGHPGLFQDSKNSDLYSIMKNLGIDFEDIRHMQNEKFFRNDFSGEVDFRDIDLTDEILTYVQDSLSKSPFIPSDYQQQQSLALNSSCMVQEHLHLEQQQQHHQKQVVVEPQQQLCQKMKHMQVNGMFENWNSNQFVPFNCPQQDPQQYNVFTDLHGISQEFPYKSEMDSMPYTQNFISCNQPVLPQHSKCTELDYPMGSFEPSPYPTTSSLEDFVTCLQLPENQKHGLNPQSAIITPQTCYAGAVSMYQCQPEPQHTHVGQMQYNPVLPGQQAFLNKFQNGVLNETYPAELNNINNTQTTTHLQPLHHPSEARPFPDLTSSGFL
UniProt Q9NYA1: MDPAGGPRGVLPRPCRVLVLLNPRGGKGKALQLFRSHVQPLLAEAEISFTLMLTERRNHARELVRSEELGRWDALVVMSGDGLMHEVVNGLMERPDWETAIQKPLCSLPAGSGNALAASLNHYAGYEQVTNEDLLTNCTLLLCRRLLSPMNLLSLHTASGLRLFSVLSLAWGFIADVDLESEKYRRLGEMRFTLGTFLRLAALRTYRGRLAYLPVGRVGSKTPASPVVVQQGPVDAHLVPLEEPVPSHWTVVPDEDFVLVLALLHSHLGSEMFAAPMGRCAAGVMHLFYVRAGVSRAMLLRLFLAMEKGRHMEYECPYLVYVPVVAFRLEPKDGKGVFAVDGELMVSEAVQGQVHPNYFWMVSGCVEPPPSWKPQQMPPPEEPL

[3] = biological target: aryl hydrocarbon receptor (AHR), endogenous in HeLa cells (human (endogenous in HeLa)) (UniProt P35869); experiment: co-IP; IP assays that compare SPHK2 and SPHK1 with AHR (Figure S3A,B); cells and precipitating antibody not told in the text shown

binding [1]	binding [2]	binding [3]	Substance
binds	binds	–	aryl hydrocarbon receptor (AHR), endogenous in HeLa cells (from UniProt P35869 11-848)
–	binds	–	aryl hydrocarbon receptor nuclear translocator (ARNT), endogenous in HeLa cells (from UniProt P27540 1-789)
–	–	binds	sphingosine kinase 1 (SPHK1) (from UniProt Q9NYA1 1-384) (enzyme)
